Counter-ions that a name gives are not always drawn. The list shows a part of the results. The data scatter; read single values as rough.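 Yeast growth was measured as optical density at 600 nm. Two-hybrid strains grew without histidine, so growth depended on Pex3–Pex19 binding. A compound was trypanosome-selective if it reduced growth of the trypanosome-pair strain by over 65% and of the human-pair strain by under 65%.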
Legend:
[1] = system: Saccharomyces cerevisiae HF7c pdr5Δ; test: general growth inhibition of yeast HF7c pdr5Δ in -Leu -Trp medium, relative to DMSO; higher = stronger general growth inhibition; conditions: 100 µM; 24 h
[2] = system: human PEX3-PEX19 interaction (yeast two-hybrid); test: growth inhibition of yeast two-hybrid strain reporting HsPex3-HsPex19 interaction, relative to DMSO; higher = stronger inhibition of human Pex3-Pex19 interaction / growth; conditions: 100 µM; 24 h; 3-aminotriazole 10 mM
[3] = system: T. brucei Pex3-Pex19 interaction (yeast two-hybrid); test: growth inhibition of yeast two-hybrid strain reporting TbPex3-TbPex19 interaction, relative to DMSO; higher = stronger inhibition of T. brucei Pex3-Pex19 interaction / growth; conditions: 100 µM; 24 h

| SMILES | general growth inhibition [1] [%] | growth inhibition [2] [%] | growth inhibition [3] [%] |
| --- | --- | --- | --- |
| O=C(O)c1ccccc1Nc1ccccc1 [N-Phenylanthranilic acid] | 37.4 | 13.6 | 37 |
| CNC[C@H](O)c1ccc(O)c(O)c1 [(-)-Epinephrine bitartrate] | 36.7 | 36.1 | 52.9 |
| C[N+](C)(C)CCO.[Br-] [Choline bromide] | 39.3 | 43.8 | 63.1 |
| CCCCCN(CCCOC)C(=O)C(CCC(=O)O)NC(=O)c1ccc(Cl)c(Cl)c1 (stereo not given) [Loxiglumide] | 20.7 | 13.1 | 32.2 |
| O=C(O)C1=CCCNC1 [Guvacine hydrochloride] | 40.8 | 36.4 | 57.6 |
| COc1ccc(CCN(C)CCc2ccc(OC)c(OC)c2)cc1OC [YS-035 hydrochloride] | 50.2 | 52.1 | 63.1 |
| CNC1(C)C2CCC(C2)C1(C)C (stereo not given) [Mecamylamine hydrochloride] | 49.1 | 38.4 | 55 |
| CS(=O)(=O)c1ccc(-n2nc(C(F)(F)F)cc2-c2ccc(F)cc2)cc1 | 33.5 | 15.2 | 32.4 |
| CC(=O)[C@H]1CC[C@H]2[C@@H]3CC=C4C[C@@H](OS(=O)(=O)O)CC[C@]4(C)[C@H]3CC[C@]12C [Pregnenolone sulfate sodium] | 18 | 51.4 | 71.9 |
| CCCCc1oc2ccccc2c1C(=O)c1cc(I)c(OCCN(CC)CC)c(I)c1 [Amiodarone hydrochloride] | 76.5 | 67.4 | 72.6 |
| O=P(O)(O)C(O)(Cn1ccnc1)P(=O)(O)O [Zoledronic acid monohydrate] | 52 | 48.5 | 67.8 |
| Oc1cc2c(c(Cl)c1O)CCNCC2c1ccccc1 (racemic) [(±)-6-Chloro-PB hydrobromide] | 47.3 | 47.3 | 62.1 |
| O=C(O)CCCCC1CCSS1 (racemic) [(±)-alpha-Lipoic Acid] | 34.5 | 40.2 | 61.3 |
| CO[C@H]1C[C@@H]2CC[C@@H](C)[C@@](O)(O2)C(=O)C(=O)N2CCCC[C@H]2C(=O)O[C@H]([C@H](C)C[C@@H]2CC[C@@H](OC(=O)C(C)(CO)CO)[C@H](OC)C2)CC(=O)[C@H](C)/C=C(\C)[C@@H](O)[C@@H](OC)C(=O)[C@H](C)C[C@H](C)/C=C/C=C/C=C/1C [Temsirolimus] | 73.1 | 61.7 | 61.4 |
| CC(C)(Sc1ccc(CCN(CCCCC2CCCCC2)C(=O)NC2CCCCC2)cc1)C(=O)O | 36.9 | 25 | 48.1 |
| O=C(O)/C=C/c1ccc(O)c(O)c1 [Caffeic Acid] | 43.4 | 43.3 | 64.1 |
| COCCc1ccc(OCC(O)CNC(C)C)cc1 (racemic) [(±)-Metoprolol (+)-tartrate] | 20.3 | 7.23 | 37.1 |
| Cc1nnc(SCC2=C(C(=O)O)N3C(=O)[C@@H](NC(=O)Cn4cnnn4)[C@H]3SC2)s1 [Cefazolin sodium] | 39.6 | 39 | 60.4 |
| COC(=O)C1=C(C)NC(C)=C(C(=O)OC2CCCN(Cc3ccccc3)C2)C1c1cccc([N+](=O)[O-])c1 (stereo not given) [Benidipine hydrochloride] | 23.4 | 22.2 | 38.1 |
| Cc1c(-c2ccc(-c3ccccc3F)cc2)nc2ccc(F)cc2c1C(=O)O [Brequinar sodium salt hydrate] | 40.3 | 23 | 52.8 |
| Cc1ccc(O)c(N=Nc2ccccc2)n1 | 47.1 | 42.2 | 41.7 |
| CC(N)=NCCCC[C@H](N)C(=O)O [L-N6-(1-Iminoethyl)lysine hydrochloride] | 42.2 | 46.9 | 65.2 |
| OC[C@H]1O[C@@H](c2nc3cc(Cl)c(Cl)cc3[nH]2)[C@H](O)[C@@H]1O [D-ribofuranosylbenzimidazole] | 36.7 | 39.8 | 62.1 |
| COc1cccc(-c2cc(=O)c3ccccc3o2)c1N | 57 | 38.6 | 45.5 |
| COc1cc(N)c(Cl)cc1C(=O)OCCN1CCCCC1 | 28.9 | 35.3 | 55.5 |
| c1ccc2c(c1)CCCC2C1=NCCN1 (stereo not given) [Tetrahydrozoline hydrochloride] | 34.5 | 51.6 | 74.3 |
| COc1ccc(C(=O)NCc2cccnc2)cc1C(=O)NCc1cccnc1 [Picotamide] | 54 | 50.9 | 68.6 |
| O=C(NOC[C@H](O)CO)c1ccc(F)c(F)c1Nc1ccc(I)cc1F | 33.5 | 42.2 | 52 |
| CCCCCCCCCC[Si](C)(C)CCC(=O)NC(Cc1ccc(C)cc1)c1ccccc1 (stereo not given) [Sandoz 58-035] | 46.2 | 36.7 | 53 |
| Cc1scc2c1N(C(=O)CN1CCN(C)CC1)c1ccccc1NC2=O [Telenzepine dihydrochloride] | 43.3 | 49.7 | 56.9 |

Compounds listed so far that contain an aryl thioether with sulfur outside any ring:

| SMILES | general growth inhibition [1] [%] | growth inhibition [2] [%] | growth inhibition [3] [%] |
| --- | --- | --- | --- |
| CC(C)(Sc1ccc(CCN(CCCCC2CCCCC2)C(=O)NC2CCCCC2)cc1)C(=O)O | 36.9 | 25 | 48.1 |
| Cc1nnc(SCC2=C(C(=O)O)N3C(=O)[C@@H](NC(=O)Cn4cnnn4)[C@H]3SC2)s1 [Cefazolin sodium] | 39.6 | 39 | 60.4 |

From the supplement of paper PMC8326762, “A Small Molecule Inhibitor of Pex3–Pex19 Interaction Disrupts Glycosome Biogenesis and Causes Lethality in Trypanosoma brucei” (Frontiers in Cell and Developmental Biology, 2021)
